The supplement of paper PMC9226226
Values joined by “and” are separate entries in the source; they are usually repeats but may differ in a detail not shown here. Equal entries are not always repeated. The list shows a part of the results. Several reference drugs read as weak here; read low effects with care.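 Human mesenchymal stem cells lacking the Werner syndrome gene, which age prematurely, were used. Automated live-cell imaging tracked growth across three biological repeats; the twenty drugs raising growth most relative to vehicle advanced, without a stated fixed cutoff.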

Test system: Werner syndrome hMSCs (WRN-/-)
Assay: relative cell density (fold change vs vehicle control); higher = more proliferation (geroprotective)
Conditions: concentration (umol/L): 1, 6 days

SMILES | relative cell density (vehicle: DMSO) | relative cell density (vehicle: Water)
C#CCC(Cc1cnc2nc(N)nc(N)c2n1)c1ccc(C(=O)N[C@@H](CCC(=O)O)C(=O)O)cc1 (some centres not stated) | 0.93 | 
CN(C)CC(c1ccc(O)cc1)C1(O)CCCCC1 (configuration not stated) | 0.98 and 1.04 | 
NC(=O)[C@@H]1CCCN1C(=O)[C@H](Cc1c[nH]cn1)NC(=O)[C@@H]1CCC(=O)N1 | 1.08 | 
CCN[C@@H]1C[C@H](N)[C@@H](O[C@H]2OC(CN)=CC[C@H]2N)[C@H](O)[C@H]1O[C@H]1OC[C@](C)(O)[C@H](NC)[C@H]1O |  | 0.886
CC(C)(O)c1ccccc1CC[C@@H](SCC1(CC(=O)O)CC1)c1cccc(/C=C/c2ccc3ccc(Cl)cc3n2)c1 | 1.01 | 
O=C1NC(=O)C(c2ccccc2)(c2ccccc2)N1 | 1.01 | 
CN(C)C/C=C/C(=O)Nc1cc2c(Nc3ccc(F)c(Cl)c3)ncnc2cc1O[C@H]1CCOC1 | 0.703 and 0.344 | 
Cc1ccc(-n2nc(C(C)(C)C)cc2NC(=O)Nc2ccc(OCCN3CCOCC3)c3ccccc23)cc1 | 1.14 | 
CCCCCCCCCCCC[N+](C)(C)CCOc1ccccc1 | 0.872 | 
C=CC(=O)Nc1cccc(Oc2nc(Nc3ccc(N4CCN(C)CC4)cc3)nc3ccsc23)c1 | 0.955 | 
C[C@H](NC(=O)C(=O)Nc1ccccc1C(C)(C)C)C(=O)N[C@@H](CC(=O)O)C(=O)COc1c(F)c(F)cc(F)c1F | 1.05 | 
CN(C)CC/C=C1/c2ccccc2COc2ccc(CC(=O)O)cc21 | 0.975 | 
CC[C@H](C)C[C@H](C)CCCCCCCCC(=O)N[C@H]1C[C@@H](O)[C@@H](NCCN)NC(=O)[C@@H]2[C@@H](O)CCN2C(=O)[C@H]([C@H](O)CCN)NC(=O)[C@H]([C@H](O)[C@@H](O)c2ccc(O)cc2)NC(=O)[C@@H]2C[C@@H](O)CN2C(=O)[C@H]([C@@H](C)O)NC1=O |  | 1.27
CN(C)Cc1ccc(S(=O)(=O)n2ccc(/C=C/C(=O)NO)c2)cc1 | 0.529 | 
C[C@@H]1COC(Nc2ccc3ncnc(Nc4ccc(OCc5nccs5)c(Cl)c4)c3c2)=N1 | 0.976 | 
C#C[C@]1(O)CC[C@H]2[C@@H]3CCC4=CC(=O)CC[C@@H]4[C@H]3CC[C@@]21CC | 1 | 
CC(=O)OCC(=O)[C@H]1CC[C@H]2[C@@H]3CCC4=CC(=O)CC[C@]4(C)[C@H]3CC[C@]12C | 1.14 | 
CCCOc1ccc(C(=O)OCCN(CC)CC)cc1N | 1.03 | 
CN1C2CCC1CC(OC(=O)C(O)c1ccccc1)C2 (configuration not stated) | 1.18 | 

SMILES | relative cell density (vehicle: DMSO) | relative cell density (vehicle: Water)
CC[C@@H](CO)NCCN[C@@H](CC)CO | 1.29 | 
C[C@]1(Cn2ccnn2)[C@H](C(=O)O)N2C(=O)C[C@H]2S1(=O)=O | 1.03 | 
c1cn2cc(-c3ccc4cn[nH]c4c3)nc(Nc3ccc(N4CCOCC4)cc3)c2n1 | 1.01 | 
O=C1CCC(N2C(=O)c3ccccc3C2=O)C(=O)N1 (configuration not stated) | 0.918 | 
CCCCc1nc(Cl)c(CO)n1Cc1ccc(-c2ccccc2-c2nnn[nH]2)cc1 | 1.16 | 
CC1(C)S[C@@H]2[C@H](NC(=O)Cc3ccccc3)C(=O)N2[C@H]1C(=O)O | 0.964 and 1.36 | 
Cc1nc2n(c(=O)c1CCN1CCC(c3noc4cc(F)ccc34)CC1)CCCC2O (configuration not stated) |  | 1.12
CC(=O)OCC1=C(C(=O)O)N2C(=O)[C@@H](NC(=O)Cc3cccs3)[C@H]2SC1 | 1.5 | 
Clc1ccc(C(Cn2ccnc2)OCc2csc3c(Cl)cccc23)c(Cl)c1 (configuration not stated) | 1 | 
CCOc1ccc(NC(=O)CC(C)O)cc1 (configuration not stated) | 1.16 | 
C[C@H]1[C@H](OC(=O)CCC(=O)O)O[C@@H]2O[C@@]3(C)CC[C@H]4[C@H](C)CC[C@@H]1[C@@]24OO3 | 0.659 | 
O=C(O)CCNC(=O)c1ccc(/N=N/c2ccc(O)c(C(=O)O)c2)cc1 | 1.27 | 
C[n+]1ccccc1/C=N/O |  | 1.34
Cc1cccc(Nc2ccccc2C(=O)O)c1C | 1.31 | 
CCC(C)n1ncn(-c2ccc(N3CCN(c4ccc(OCC5COC(Cn6cncn6)(c6ccc(Cl)cc6Cl)O5)cc4)CC3)cc2)c1=O (configuration not stated) |  | 0.275
CCOc1cc(N)c(Cl)cc1C(=O)NCC1CN(Cc2ccc(F)cc2)CCO1 (configuration not stated) | 1.43 and 1.05 | 
O=C1OC(CN2CCOCC2)CN1/N=C/c1ccc([N+](=O)[O-])o1 (configuration not stated) | 1.11 | 
Cc1ccsc1C(=CCCN1CCC[C@@H](C(=O)O)C1)c1sccc1C | 0.998 | 
C[n+]1ccccc1C=NO | 1.11 | 

SMILES | relative cell density (vehicle: DMSO) | relative cell density (vehicle: Water)
CCc1cnn2c(NCc3ccc[n+]([O-])c3)cc(N3CCCC[C@H]3CCO)nc12 | 0.145 | 
O=C1NC(=O)[C@@H](c2cn3c4c(cccc24)CCC3)[C@@H]1c1c[nH]c2ccccc12 | 0.315 | 
CCN(CC)Cc1cc(Nc2ccnc3cc(Cl)ccc23)ccc1O | 1.36 | 
CCC(=O)OCC(=O)[C@@]1(OC(=O)CC)[C@@H](C)C[C@H]2[C@@H]3CCC4=CC(=O)C=C[C@]4(C)[C@@]3(Cl)[C@@H](O)C[C@@]21C | 1.07 | 
O=C(/C=C/C=C/c1ccc2c(c1)OCO2)N1CCCCC1 | 1.23 | 
COc1nc(N)nc2c1ncn2[C@@H]1O[C@H](CO)[C@@H](O)[C@@H]1O | 0.942 | 
COc1ccccc1N1CCN(CCCNc2cc(=O)n(C)c(=O)n2C)CC1 | 0.982 | 
C#C[C@]1(O)CC[C@H]2[C@@H]3CCC4=CCCC[C@@H]4[C@H]3C(=C)C[C@@]21CC | 1.4 | 
CN(C)[C@@H]1C(=O)C(C(N)=O)=C(O)[C@@]2(O)C(=O)C3=C(O)c4c(O)ccc(Cl)c4[C@@H](O)[C@H]3C[C@@H]12 | 1.14 | 
Cn1cnc([N+](=O)[O-])c1Sc1ncnc2[nH]cnc12 | 1.13 | 
CC(=O)Oc1cc2c(s1)CCN(C(C(=O)C1CC1)c1ccccc1F)C2 (configuration not stated) | 0.855 and 0.824 | 
CC(C)C(=O)Nc1ccc([N+](=O)[O-])c(C(F)(F)F)c1 | 1.2 | 
OCCN1C[C@H](O)[C@@H](O)[C@H](O)[C@H]1CO | 1.1 | 
S=C(NCc1ccc2c(c1)OCO2)N1CCN(c2ncnc3c2oc2ccccc23)CC1 | 0.924 | 
CC(=O)OCC[N+](C)(C)C | 1.28 | 
COC(=O)C1=C(C)NC(C)=C(C(=O)OC(C)C)C1c1cccc2nonc12 (configuration not stated) | 1.08 | 
C[C@H](CCC(=O)O)[C@H]1CC[C@H]2[C@@H]3CC[C@@H]4C[C@H](O)CC[C@]4(C)[C@H]3CC[C@]12C | 1.15 | 
CC(=O)SCC(Cc1ccccc1)C(=O)NCC(=O)OCc1ccccc1 (configuration not stated) | 1.24 | 
O=C(O)CCCC[C@@H]1SC[C@@H]2NC(=O)N[C@@H]21 | 1.31 | 

An excerpt from above in order of SMILES length, high to low.
SMILES | relative cell density (vehicle: DMSO) | relative cell density (vehicle: Water)
O=C1NC(=O)[C@@H](c2cn3c4c(cccc24)CCC3)[C@@H]1c1c[nH]c2ccccc12 | 0.315 | 
COc1ccccc1N1CCN(CCCNc2cc(=O)n(C)c(=O)n2C)CC1 | 0.982 | 
O=C(O)CCCC[C@@H]1SC[C@@H]2NC(=O)N[C@@H]21 | 1.31 | 
